Measured values as given in patent publication US10273210B2, “Pyridine compound” (Sumitomo Chemical Company, Limited, priority 2015, dated 2019).
Where two headings read alike, the source gives them in different places. Some results were stated once for a whole list of compounds, not compound by compound. For some of these results: At least one compound was matched to its structure with a doubt left.

Key:
[1] = system: cabbage moth (Plutella xylostella); assay: Test Example 7: sprayed cabbage seedlings, cabbage moth 3rd instar larvae, mortality; settings: 200 ppm, spray 20 mL/seedling on cabbage, after 5 days
[2] = system: cabbage moth (Plutella xylostella); settings: 500 ppm, spray 20 mL/seedling on cabbage, 2nd instar larvae, after 5 days
[3] = system: cotton aphid (Aphis gossypii); assay: Test Example 1: foliar spray on cucumber seedlings infested with cotton aphid, controlling value; format: in vivo; settings: spray 10 mL/seedling on cucumber, 5 days after spraying, 25° C.
Text: Controlling value (%)={1−(Cb×Tai)/(Cai×Tb)}×100 wherein the symbols in the formula represent the following meanings. Cb: Number of the test insects in untreated group; Cai: Number of the surviving insects at the time of the investigation in untreated group; Tb: Number of the test insects in treated group; Tai: Number of the surviving insects at the time of the investigation in treated group; Here the “untreated group” represents a group where a similar treatment procedure to that of the treated group except not using each test compound is done.

[4] = system: western corn rootworm (Diabrotica virgifera virgifera); settings: 500 ppm, corn seedlings immersed 30 seconds, 2nd instar larvae, after 5 days
[5] = system: cotton aphid (Aphis gossypii); assay: Test Example 2: irrigation into plant foot of cucumber seedlings, cotton aphid inoculated after 7 days, controlling value; format: in vivo; settings: 200 ppm, irrigated into plant foot 5 mL/seedling, aphids inoculated after 7 days, examined after additional 6 days
[6] = system: tobacco cutworm (Spodoptera litura); assay: Test Example 5: artificial diet irrigated with diluted solution, tobacco cutworm 4th instar larvae, mortality; settings: 500 ppm, 2 mL on artificial diet, after 5 days

CCSc1ccc(C(F)(F)F)cc1-c1ccc(OCC(F)(F)C(F)(F)F)cn1 [Present compound 18]
mortality of insects [1]: ≥ 90%
mortality of insects [2]: ≥ 80%

CC[S+]([O-])c1ccc(Cl)cc1-c1ccc(OCC(F)(F)C(F)(F)F)cn1 (stereo not shown) [Present compound 22]
controlling value ([3]; 500 ppm): ≥ 90%

CCS(=O)(=O)c1ccc(Cl)cc1-c1ccc(OCC(F)(F)C(F)(F)F)cn1 [Present compound 23]
controlling value ([3]; 500 ppm): ≥ 90%

CCS(=O)(=O)c1cc([N+](=O)[O-])ccc1-c1ccc(OCC(F)(F)C(F)(F)F)cn1 [Present compound 32]
controlling value ([3]; 500 ppm): ≥ 90%

CC[S+]([O-])c1ccc([N+](=O)[O-])cc1-c1ccc(OCC(F)(F)C(F)(F)F)cn1 (stereo not shown) [Present compound 33]
controlling value ([3]; 500 ppm): ≥ 90%

CCS(=O)(=O)c1ccc([N+](=O)[O-])cc1-c1ccc(OCC(F)(F)C(F)(F)F)cn1 [Present compound 34]
controlling value ([3]; 500 ppm): ≥ 90%

CC[S+]([O-])c1cccc(OC)c1-c1ccc(OCC(F)(F)C(F)(F)F)cn1 (stereo not shown) [Present compound 36]
controlling value ([3]; 500 ppm): ≥ 90%

CCS(=O)(=O)c1cccc(OC)c1-c1ccc(OCC(F)(F)C(F)(F)F)cn1 [Present compound 37]
controlling value ([3]; 500 ppm): ≥ 90%

CCS(=O)(=O)c1c(C)cccc1-c1ccc(OCC(F)(F)C(F)(F)F)cn1 [Present compound 40]
controlling value ([3]; 500 ppm): ≥ 90%

CC[S+]([O-])c1cc(C(F)(F)F)ccc1-c1ccc(OCC(F)(F)C(F)(F)F)cn1 (stereo not shown) [Present compound 41]
controlling value ([3]; 500 ppm): ≥ 90%

CCS(=O)(=O)c1cccc(Cl)c1-c1ccc(OCC(F)(F)C(F)(F)F)cn1 [Present compound 42]
controlling value ([3]; 500 ppm): ≥ 90%

CCS(=O)(=O)c1cccc(C)c1-c1ccc(OCC(F)(F)C(F)(F)F)cn1 [Present compound 43]
controlling value ([3]; 500 ppm): ≥ 90%

CC[S+]([O-])c1ccc(C)cc1-c1ccc(OCC(F)(F)C(F)(F)F)cn1 (stereo not shown) [Present compound 45]
controlling value ([3]; 500 ppm): ≥ 90%

CCS(=O)(=O)c1ccc(C)cc1-c1ccc(OCC(F)(F)C(F)(F)F)cn1 [Present compound 46]
controlling value ([3]; 200 ppm): ≥ 90%
controlling value ([3]; 500 ppm): ≥ 90%

CC[S+]([O-])c1cc(OC(F)(F)F)ccc1-c1ccc(OCC(F)(F)C(F)(F)F)cn1 (stereo not shown) [Present compound 48]
controlling value ([3]; 500 ppm): ≥ 90%

CCS(=O)(=O)c1cc(OC(F)(F)F)ccc1-c1ccc(OCC(F)(F)C(F)(F)F)cn1 [Present compound 49]
controlling value ([3]; 500 ppm): ≥ 90%

CC[S+]([O-])c1cc(C)ccc1-c1ccc(OCC(F)(F)C(F)(F)F)cn1 (stereo not shown) [Present compound 51]
controlling value ([3]; 500 ppm): ≥ 90%

CCS(=O)(=O)c1cc(C)ccc1-c1ccc(OCC(F)(F)C(F)(F)F)cn1 [Present compound 52]
controlling value ([3]; 200 ppm): ≥ 90%
controlling value ([3]; 500 ppm): ≥ 90%

CCS(=O)(=O)c1cc(N)ccc1-c1ccc(OCC(F)(F)C(F)(F)F)cn1 [Present compound 53]
mortality of insects [2]: ≥ 80%

CC[S+]([O-])c1ccc(OC(F)(F)F)cc1-c1ccc(OCC(F)(F)C(F)(F)F)cn1 (stereo not shown) [Present compound 54]
controlling value ([3]; 500 ppm): ≥ 90%

CCS(=O)(=O)c1ccc(OC(F)(F)F)cc1-c1ccc(OCC(F)(F)C(F)(F)F)cn1 [Present compound 55]
controlling value ([3]; 500 ppm): ≥ 90%

CC[S+]([O-])c1cc(Br)ccc1-c1ccc(OCC(F)(F)C(F)(F)F)cn1 (stereo not shown) [Present compound 57]
controlling value ([3]; 500 ppm): ≥ 90%

CCS(=O)(=O)c1cc(Br)ccc1-c1ccc(OCC(F)(F)C(F)(F)F)cn1 [Present compound 58]
controlling value ([3]; 200 ppm): ≥ 90%
controlling value ([3]; 500 ppm): ≥ 90%

CCSc1cc(C#N)ccc1-c1ccc(OCC(F)(F)C(F)(F)F)cn1 [Present compound 59]
mortality of insects [1]: ≥ 90%
mortality of insects [2]: ≥ 80%
mortality of insects [4]: ≥ 80%

CCS(=O)(=O)c1cc(C#N)ccc1-c1ccc(OCC(F)(F)C(F)(F)F)cn1 [Present compound 60]
controlling value [5]: ≥ 90%
mortality of insects [1]: ≥ 90%
mortality of insects [2]: ≥ 80%
mortality of insects [4]: ≥ 80%

CCS(=O)(=O)c1cc(C(=O)O)ccc1-c1ccc(OCC(F)(F)C(F)(F)F)cn1 [Present compound 61]
mortality of insects [2]: ≥ 80%

CCS(=O)(=O)c1ccc(N)cc1-c1ccc(OCC(F)(F)C(F)(F)F)cn1 [Present compound 62]
mortality of insects [1]: ≥ 90%
mortality of insects [2]: ≥ 80%

CCS(=O)(=O)c1cc(NC(=O)C2CC2)ccc1-c1ccc(OCC(F)(F)C(F)(F)F)cn1 [Present compound 63]
mortality of insects [1]: ≥ 90%
mortality of insects [2]: ≥ 80%

CC[S+]([O-])c1ccc(C#N)cc1-c1ccc(OCC(F)(F)C(F)(F)F)cn1 (stereo not shown) [Present compound 65]
controlling value ([3]; 200 ppm): ≥ 90%
controlling value ([3]; 500 ppm): ≥ 90%

CCS(=O)(=O)c1ccc(C#N)cc1-c1ccc(OCC(F)(F)C(F)(F)F)cn1 [Present compound 66]
controlling value [5]: ≥ 90%
controlling value ([3]; 200 ppm): ≥ 90%
controlling value ([3]; 500 ppm): ≥ 90%

CCS(=O)(=O)c1cc(-n2cncn2)ccc1-c1ccc(OCC(F)(F)C(F)(F)F)cn1 [Present compound 67]
controlling value [5]: ≥ 90%
mortality of insects [1]: ≥ 90%
mortality of insects [2]: ≥ 80%
mortality of insects [6]: ≥ 80%

CCS(=O)(=O)c1cc(-c2ccccn2)ccc1-c1ccc(OCC(F)(F)C(F)(F)F)cn1 [Present compound 68]
mortality of insects [1]: ≥ 90%
mortality of insects [2]: ≥ 80%
mortality of insects [6]: ≥ 80%

CCS(=O)(=O)c1cc(-c2ccc(C(F)(F)F)cn2)ccc1-c1ccc(OCC(F)(F)C(F)(F)F)cn1 [Present compound 69]
mortality of insects [1]: ≥ 90%
mortality of insects [2]: ≥ 80%
mortality of insects [6]: ≥ 80%

CCS(=O)(=O)c1cc(-n2cnc(C(F)(F)F)n2)ccc1-c1ccc(OCC(F)(F)C(F)(F)F)cn1 [Present compound 70]
mortality of insects [1]: ≥ 90%
